# Some of the results follow. Repeats in this data set agree poorly, so a single value says little.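 Cells: ReNCell VM human fetal ventral-midbrain neural progenitors, differentiated mitogen-free. Blinded raters compared doublecortin-stained (early neurons) or tyrosine hydroxylase-stained (dopaminergic neurons) images with untreated wells, where 0 means no change. After repeats and both raters were averaged, compounds scoring 2 or above became hits for retesting.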
# Tests used:
# ReNCell VM [1] = assay: neuronal differentiation score (DCX+ cell fraction vs untreated, manual image score) (score (-3 to 3)); higher = more neuronal differentiation; conditions: 2 uM, 2 weeks
# ReNCell VM [2] = assay: dopaminergic neuron differentiation score (TH+ cell fraction vs untreated, manual image score) (score (0 to 3)); higher = more TH+ dopaminergic neuron differentiation; conditions: 2 uM, 4 weeks, BDNF 10 ng/ml + GDNF 10 ng/ml
compound,measurement,setting,value
"CC1(C)C(=O)[C@@H]2O[C@@H]2[C@@]2(C)C1C[C@@H](O)[C@]1(C)C2CC[C@@]2(C)[C@H](c3ccoc3)OC(=O)C3OC321 (stereo partly drawn) [1,2alpha-EPOXYDEACETOXYDIHYDROGEDUNIN]",neuronal differentiation score,ReNCell VM [1]; library: Spectrum,inactive: 0
same,dopaminergic neuron differentiation score,ReNCell VM [2]; library: Spectrum,inactive: 0
CC[C@@H](CO)NC(=O)[C@@H]1C=C2c3cccc4c3c(cn4C)C[C@H]2N(C)C1,neuronal differentiation score,ReNCell VM [1]; library: Spectrum,inactive: 0
same,dopaminergic neuron differentiation score,ReNCell VM [2]; library: Spectrum,inactive: 0
CC(C)[C@@H]1NC(=O)[C@H](C)OC(=O)[C@@H](C(C)C)NC(=O)[C@@H](C(C)C)OC(=O)[C@H](C(C)C)NC(=O)[C@H](C)OC(=O)[C@@H](C(C)C)NC(=O)[C@@H](C(C)C)OC(=O)[C@H](C(C)C)NC(=O)[C@H](C)OC(=O)[C@@H](C(C)C)NC(=O)[C@@H](C(C)C)OC1=O,neuronal differentiation score,ReNCell VM [1]; library: Spectrum,inactive: 0
same,dopaminergic neuron differentiation score,ReNCell VM [2]; library: Spectrum,inactive: 0
COP(=S)(OC)Oc1ccc(SC)c(C)c1,neuronal differentiation score,ReNCell VM [1]; library: Spectrum,inactive: 0
same,dopaminergic neuron differentiation score,ReNCell VM [2]; library: Spectrum,inactive: 0
O=C(O)CCC(CP(=O)(O)O)C(=O)O (stereo not drawn) [PMPA (NAALADase inhibitor)],neuronal differentiation score,ReNCell VM [1]; library: Tocriscreen,inactive: -3
same,dopaminergic neuron differentiation score,ReNCell VM [2]; library: Tocriscreen,inactive: 0
O=P1(N(CCCl)CCCl)NCCCO1 (stereo not drawn) [Cyclophosphamide monohydrate],neuronal differentiation score,ReNCell VM [1]; library: LOPAC,inactive: 0
same,dopaminergic neuron differentiation score,ReNCell VM [2]; library: LOPAC,inactive: 0
Cc1cccc(C)c1NC1=NCCCS1,neuronal differentiation score,ReNCell VM [1]; library: Spectrum,inactive: 0
same,dopaminergic neuron differentiation score,ReNCell VM [2]; library: Spectrum,inactive: 0
C[C@]12CC[C@H](O)CC1=CC[C@@H]1[C@@H]2CC[C@]2(C)C(=O)CC[C@@H]12,neuronal differentiation score,ReNCell VM [1]; library: Spectrum,inactive: 0
same,dopaminergic neuron differentiation score,ReNCell VM [2]; library: Spectrum,inactive: 0
CCCC(C)C1(CC)C(=O)NC(=S)NC1=O (stereo not drawn),neuronal differentiation score,ReNCell VM [1]; library: Spectrum,inactive: 0
same,dopaminergic neuron differentiation score,ReNCell VM [2]; library: Spectrum,inactive: 0
CCOC(=O)CC(SP(=S)(OC)OC)C(=O)OCC (stereo not drawn),neuronal differentiation score,ReNCell VM [1]; library: Spectrum,inactive: 0
same,dopaminergic neuron differentiation score,ReNCell VM [2]; library: Spectrum,inactive: 0
COc1cc2c(cc1OC)[C@@H]1C(=O)c3ccc4c(c3O[C@@H]1CO2)CC(C(C)C)O4 (stereo partly drawn),neuronal differentiation score,ReNCell VM [1]; library: Spectrum,inactive: 0
same,dopaminergic neuron differentiation score,ReNCell VM [2]; library: Spectrum,inactive: 0
CC(=O)C1=C(O)[C@@H]2[C@H]3c4c[nH]c5cccc(c45)C[C@H]3C(C)(C)N2C1=O [Cyclopiazonic Acid],neuronal differentiation score,ReNCell VM [1]; library: Tocriscreen,inactive: 0
same,dopaminergic neuron differentiation score,ReNCell VM [2]; library: Tocriscreen,inactive: 0
CN1[C@@H]2CC[C@H]1C[C@@H](OC(c1ccccc1)c1ccccc1N)C2 (stereo partly drawn) [Aminobenztropine],neuronal differentiation score,ReNCell VM [1]; library: LOPAC,inactive: 1
same,dopaminergic neuron differentiation score,ReNCell VM [2]; library: LOPAC,inactive: 0
"BrC1C(Br)C(Br)C(Br)C(Br)C1Br (stereo not drawn) [1,2,3,4,5,6-Hexabromocyclohexane]",neuronal differentiation score,ReNCell VM [1]; library: Tocriscreen,inactive: 0
same,dopaminergic neuron differentiation score,ReNCell VM [2]; library: Tocriscreen,inactive: 0
C/C=C(\C)C(=O)O[C@H]1C[C@@H](OC(C)=O)[C@@]2(C(=O)OC)CO[C@H]3[C@@H](O)[C@@](C)([C@]45O[C@@]4(C)[C@H]4C[C@@H]5O[C@@H]5OC=C[C@@]54O)[C@H]4[C@]1(CO[C@]4(O)C(=O)OC)[C@@H]32,neuronal differentiation score,ReNCell VM [1]; library: Spectrum,inactive: 0
same,dopaminergic neuron differentiation score,ReNCell VM [2]; library: Spectrum,inactive: 0
C=CCc1cc(OC)c2c(c1OC)OCO2,neuronal differentiation score,ReNCell VM [1]; library: Spectrum,inactive: 0
same,dopaminergic neuron differentiation score,ReNCell VM [2]; library: Spectrum,inactive: 0
CC(C)(C)NCC(O)c1ccccc1Cl (stereo not drawn),neuronal differentiation score,ReNCell VM [1]; library: Spectrum,inactive: 0
same,dopaminergic neuron differentiation score,ReNCell VM [2]; library: Spectrum,inactive: 0
C(=C\c1ccccc1)/CN1CCN(CCOC(c2ccccc2)c2ccccc2)CC1,neuronal differentiation score,ReNCell VM [1]; library: Tocriscreen,inactive: 0
same,dopaminergic neuron differentiation score,ReNCell VM [2]; library: Tocriscreen,inactive: 0
CCCCC1(C2CCCC2)Cc2cc(OCCCC(=O)O)c(Cl)c(Cl)c2C1=O (stereo not drawn),neuronal differentiation score,ReNCell VM [1]; library: Tocriscreen,inactive: 0
same,dopaminergic neuron differentiation score,ReNCell VM [2]; library: Tocriscreen,inactive: 0

# Exported with bars between the fields: part of the list above
compound | measurement | setting | value
O=C(O)CCC(CP(=O)(O)O)C(=O)O (stereo not drawn) [PMPA (NAALADase inhibitor)] | neuronal differentiation score | ReNCell VM [1]; library: Tocriscreen | inactive: -3
same | dopaminergic neuron differentiation score | ReNCell VM [2]; library: Tocriscreen | inactive: 0

# Reference: the supplement of paper PMC4635364
